Read-outs that look alike come from different tables or passages of the source. These are yes or no findings as the source states them, for the method shown. Binding seen in cells or lysates may run through a third protein. Here binding means that the protein was enriched with, or labelled near, the bait; the list need not be complete.
Assays:
[1] = target: TRKB (tropomyosin-related kinase B), BDNF receptor, endogenous in mouse hippocampus (mouse (endogenous in hippocampus)) (UniProt P15209); assay: affinity purification with mass spectrometry
[2] = target: TRKB (tropomyosin-related kinase B), BDNF receptor, endogenous in mouse hippocampus (mouse (endogenous in hippocampus)) (UniProt P15209); assay: affinity purification with mass spectrometry; remark: listed apart in the source

The chains behind the UniProt entries cited, without tags or fusion partners. Residues count along the entry.
UniProt P15209, residues 32-821: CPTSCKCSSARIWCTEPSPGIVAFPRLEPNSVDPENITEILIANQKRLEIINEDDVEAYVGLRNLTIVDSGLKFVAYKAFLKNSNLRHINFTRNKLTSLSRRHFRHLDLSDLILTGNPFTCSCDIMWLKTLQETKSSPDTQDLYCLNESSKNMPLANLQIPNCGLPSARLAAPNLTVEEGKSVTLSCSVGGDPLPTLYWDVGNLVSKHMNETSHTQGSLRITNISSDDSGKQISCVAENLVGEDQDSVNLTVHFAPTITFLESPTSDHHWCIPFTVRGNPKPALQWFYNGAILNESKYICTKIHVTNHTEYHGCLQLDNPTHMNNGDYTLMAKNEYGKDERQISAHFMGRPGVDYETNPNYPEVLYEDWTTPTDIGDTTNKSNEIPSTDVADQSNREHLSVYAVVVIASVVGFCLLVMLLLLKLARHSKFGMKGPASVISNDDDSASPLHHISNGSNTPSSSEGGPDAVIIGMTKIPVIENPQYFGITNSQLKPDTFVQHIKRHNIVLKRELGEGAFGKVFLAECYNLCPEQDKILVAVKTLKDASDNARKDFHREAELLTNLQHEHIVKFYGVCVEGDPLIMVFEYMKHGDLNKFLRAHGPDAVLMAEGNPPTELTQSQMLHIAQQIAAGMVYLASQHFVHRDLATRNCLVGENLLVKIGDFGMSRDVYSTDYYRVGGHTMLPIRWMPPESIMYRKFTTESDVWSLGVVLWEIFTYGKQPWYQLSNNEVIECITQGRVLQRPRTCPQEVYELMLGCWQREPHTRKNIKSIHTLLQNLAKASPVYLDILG
UniProt P17427: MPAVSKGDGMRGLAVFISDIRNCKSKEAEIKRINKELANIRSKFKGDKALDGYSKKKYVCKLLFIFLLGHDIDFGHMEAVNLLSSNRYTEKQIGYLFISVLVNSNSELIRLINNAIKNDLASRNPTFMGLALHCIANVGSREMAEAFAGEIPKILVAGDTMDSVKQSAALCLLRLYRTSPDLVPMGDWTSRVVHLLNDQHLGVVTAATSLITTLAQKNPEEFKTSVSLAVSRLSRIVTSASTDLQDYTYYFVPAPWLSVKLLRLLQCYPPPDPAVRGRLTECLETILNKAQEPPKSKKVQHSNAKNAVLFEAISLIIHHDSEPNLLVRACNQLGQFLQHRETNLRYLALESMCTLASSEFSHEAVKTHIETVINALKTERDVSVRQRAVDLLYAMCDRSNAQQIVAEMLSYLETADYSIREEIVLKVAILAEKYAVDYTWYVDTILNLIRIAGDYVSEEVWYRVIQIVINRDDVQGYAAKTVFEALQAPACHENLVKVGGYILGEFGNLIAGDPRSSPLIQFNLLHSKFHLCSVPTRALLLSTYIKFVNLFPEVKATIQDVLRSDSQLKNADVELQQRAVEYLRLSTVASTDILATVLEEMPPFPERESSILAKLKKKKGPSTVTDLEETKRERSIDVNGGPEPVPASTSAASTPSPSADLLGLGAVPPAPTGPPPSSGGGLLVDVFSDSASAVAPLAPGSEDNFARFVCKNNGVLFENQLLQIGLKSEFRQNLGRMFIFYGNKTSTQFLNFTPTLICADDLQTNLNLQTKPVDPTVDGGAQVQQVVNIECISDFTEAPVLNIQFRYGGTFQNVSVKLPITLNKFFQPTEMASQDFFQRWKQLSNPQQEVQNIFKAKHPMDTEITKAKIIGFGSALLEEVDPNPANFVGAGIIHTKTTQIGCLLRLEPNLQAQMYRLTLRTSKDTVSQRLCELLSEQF

| binding [1] | binding [2] | Molecule |
| --- | --- | --- |
| binds |  | AP-2 complex subunit alpha-2 (from UniProt P17427 1-938) |
|  | binds | AP3D1 (subunit of the AP-3 complex) (protein, UniProt O54774 1-1199) MALKMVKGSIDRMFDKNLQDLVRGIRNHKEDEAKYISQCIDEIKQELKQDNIAVKANAVCKLTYLQMLGYDISWAAFNIIEVMSASKFTFKRVGYLAASQCFHEGTDVIMLTTNQIRKDLSSPSQYDTGVALTGLSCFVTPDLARDLANDIMTLMSHTKPYIRKKAVLIMYKVFLKYPESLRPAFPRLKEKLEDPDPGVQSAAVNVICELARRNPKNYLSLAPLFFKLMTSSTNNWVLIKIIKLFGALTPLEPRLGKKLIEPLTNLIHSTSAMSLLYECVNTVIAVLISLSSGMPNHSASIQLCVQKLRILIEDSDQNLKYLGLLAMSKILKTHPKSVQSHKDLILQCLDDKDESIRLRALDLLYGMVSKKNLMEIVKKLMTHVDKAEGTTYRDELLTKIIDICSQSNYQHITNFEWYISILVELTRLEGTRHGHLIAAQMLDVAIRVKAIRKFAVSQMSSLLDSAHLVASSTQRNGICEVLYAAAWICGEFSEHLQGPQQTLEAMLRPKVTTLPGHIQAVYVQNVVKLYASILQQKEQAADTEAAQEVTQLLVERLPQFVQSADLEVQERASCILQLVKHVQKLQAKGVPVAEEVSALFAGELNPVAPKAQKKVPVPEGLDLDAWINEPPSDSESEDEKPKAIFHEEEPRHTRRRQPEEDEEELARRREARKQEQANNPFYIKSSPSPQKRYQDAPGVEHIPVVQIDLSVPLKVPGMPMSDQYVKLEEQRRHRQRLEKDKKRKKKEKGKRRHSSLPTESDEDIAPAQRVDIITEEMPENALPSDEDDKDPNDPYRALDIDLDKPLADSEKLPVQKHRNAEAVKSPEKEGVLGVEKKSKKPKKKEKKTKEREREKKDKKGEDLDFWLSTTPPPAAAPIPAPSTEELAASTITSPKDECEVLKGEEEDHVDHDQERKSSRHKKKKHRKEKEKEERPRDKKKAKKKQVAPLENGAAAEEEEEPIPPMSSYCLLAESPYIKVTYDIQASLQKDSQVTVSIILENQSSSFLKNMELNVLDSLNTKMTRPEGSSVHDGVPVPFQLPPGVSNEAQFVFTIQSIVMAQKLKGTLSFIAKDDEGATHEKLDFRLHFSCSSYLITTPCYSDAFAKLLESGDLSMNSIKVDGISMSFQNLLAKICFYHHFSVVERVDSCASMYSRSIQGHHVCLLVKKGESSVSVDGKCSDATLLSSLLEEMKTTLAQC |
